Source: article PMC10988300
Results are given in words; binding and its absence hold for the method and conditions named. In cells and extracts the contact can be indirect. Here binding means that the protein was enriched with, or labelled near, the bait; the list need not be complete.

Protein sequences, listed by entry. Tags and fused reporters are not part of them.
UniProt P09429: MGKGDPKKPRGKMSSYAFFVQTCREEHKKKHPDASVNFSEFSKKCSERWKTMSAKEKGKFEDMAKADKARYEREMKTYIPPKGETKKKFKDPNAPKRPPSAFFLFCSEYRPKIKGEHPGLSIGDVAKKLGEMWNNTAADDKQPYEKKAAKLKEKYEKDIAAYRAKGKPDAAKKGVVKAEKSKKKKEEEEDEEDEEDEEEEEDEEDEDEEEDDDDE
UniProt Q96JN8: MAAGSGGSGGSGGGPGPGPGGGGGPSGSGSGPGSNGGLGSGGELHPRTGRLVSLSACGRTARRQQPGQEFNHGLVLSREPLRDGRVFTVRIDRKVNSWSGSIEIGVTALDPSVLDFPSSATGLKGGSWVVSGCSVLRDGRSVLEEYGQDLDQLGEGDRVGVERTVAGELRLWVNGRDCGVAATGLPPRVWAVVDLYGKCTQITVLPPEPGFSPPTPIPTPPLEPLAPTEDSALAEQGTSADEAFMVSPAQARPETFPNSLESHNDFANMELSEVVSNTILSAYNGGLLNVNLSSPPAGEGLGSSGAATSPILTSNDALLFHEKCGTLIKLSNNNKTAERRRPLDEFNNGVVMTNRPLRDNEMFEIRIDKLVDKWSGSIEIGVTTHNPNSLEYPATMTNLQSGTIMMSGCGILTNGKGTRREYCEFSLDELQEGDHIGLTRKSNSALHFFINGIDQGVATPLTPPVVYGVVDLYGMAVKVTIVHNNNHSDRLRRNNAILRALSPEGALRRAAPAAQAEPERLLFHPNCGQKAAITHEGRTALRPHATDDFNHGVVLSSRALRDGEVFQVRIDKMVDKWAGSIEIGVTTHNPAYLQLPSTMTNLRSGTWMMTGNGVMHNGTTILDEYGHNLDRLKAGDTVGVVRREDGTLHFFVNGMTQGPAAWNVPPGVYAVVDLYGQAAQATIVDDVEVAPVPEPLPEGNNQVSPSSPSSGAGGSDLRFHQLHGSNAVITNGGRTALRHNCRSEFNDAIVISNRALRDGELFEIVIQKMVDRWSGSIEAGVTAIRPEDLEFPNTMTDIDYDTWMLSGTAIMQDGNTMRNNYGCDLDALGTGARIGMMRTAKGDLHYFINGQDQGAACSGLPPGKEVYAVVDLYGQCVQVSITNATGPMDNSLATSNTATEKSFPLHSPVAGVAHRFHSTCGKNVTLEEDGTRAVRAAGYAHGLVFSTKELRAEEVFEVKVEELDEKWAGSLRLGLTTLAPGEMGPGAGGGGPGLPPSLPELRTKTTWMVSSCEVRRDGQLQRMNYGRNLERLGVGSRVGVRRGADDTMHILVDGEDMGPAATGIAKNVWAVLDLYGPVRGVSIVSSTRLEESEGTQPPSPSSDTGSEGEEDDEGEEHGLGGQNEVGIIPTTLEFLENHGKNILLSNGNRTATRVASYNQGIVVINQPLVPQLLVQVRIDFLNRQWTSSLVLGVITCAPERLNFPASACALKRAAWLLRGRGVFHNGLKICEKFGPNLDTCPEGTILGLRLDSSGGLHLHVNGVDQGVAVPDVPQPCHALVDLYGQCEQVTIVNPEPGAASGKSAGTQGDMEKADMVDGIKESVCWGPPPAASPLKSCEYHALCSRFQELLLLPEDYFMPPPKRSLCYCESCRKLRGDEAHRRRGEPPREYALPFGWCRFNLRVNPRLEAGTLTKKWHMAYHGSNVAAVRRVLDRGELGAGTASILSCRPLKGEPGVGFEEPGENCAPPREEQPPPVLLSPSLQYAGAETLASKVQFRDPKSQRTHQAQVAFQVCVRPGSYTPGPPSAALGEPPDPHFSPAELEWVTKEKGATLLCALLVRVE

B1: USP15, hit of the HMGB1 IP-MS (enzyme, UniProt Q9Y4E8 1-981)
chain: MAEGGAADLDTQRSDIATLLKTSLRKGDTWYLVDSRWFKQWKKYVGFDSWDKYQMGDQNVYPGPIDNSGLLKDGDAQSLKEHLIDELDYILLPTEGWNKLVSWYTLMEGQEPIARKVVEQGMFVKHCKVEVYLTELKLCENGNMNNVVTRRFSKADTIDTIEKEIRKIFSIPDEKETRLWNKYMSNTFEPLNKPDSTIQDAGLYQGQVLVIEQKNEDGTWPRGPSTPKSPGASNFSTLPKISPSSLSNNYNNMNNRNVKNSNYCLPSYTAYKNYDYSEPGRNNEQPGLCGLSNLGNTCFMNSAIQCLSNTPPLTEYFLNDKYQEELNFDNPLGMRGEIAKSYAELIKQMWSGKFSYVTPRAFKTQVGRFAPQFSGYQQQDCQELLAFLLDGLHEDLNRIRKKPYIQLKDADGRPDKVVAEEAWENHLKRNDSIIVDIFHGLFKSTLVCPECAKISVTFDPFCYLTLPLPMKKERTLEVYLVRMDPLTKPMQYKVVVPKIGNILDLCTALSALSGIPADKMIVTDIYNHRFHRIFAMDENLSSIMERDDIYVFEININRTEDTEHVIIPVCLREKFRHSSYTHHTGSSLFGQPFLMAVPRNNTEDKLYNLLLLRMCRYVKISTETEETEGSLHCCKDQNINGNGPNGIHEEGSPSEMETDEPDDESSQDQELPSENENSQSEDSVGGDNDSENGLCTEDTCKGQLTGHKKRLFTFQFNNLGNTDINYIKDDTRHIRFDDRQLRLDERSFLALDWDPDLKKRYFDENAAEDFEKHESVEYKPPKKPFVKLKDCIELFTTKEKLGAEDPWYCPNCKEHQQATKKLDLWSLPPVLVVHLKRFSYSRYMRDKLDTLVDFPINDLDMSEFLINPNAGPCRYNLIAVSNHYGGMGGGHYTAFAKNKDDGKWYYFDDSSVSTASEDQIVSKAAYVLFYQRQDTFSGTGFFPLDRETKGASAATGIPLESDEDSNDNDNDIENENCMHTN
B2: interleukin enhancer-binding factor 3 (ILF3) (protein, UniProt Q12906 1-894)
chain: MRPMRIFVNDDRHVMAKHSSVYPTQEELEAVQNMVSHTERALKAVSDWIDEQEKGSSEQAESDNMDVPPEDDSKEGAGEQKTEHMTRTLRGVMRVGLVAKGLLLKGDLDLELVLLCKEKPTTALLDKVADNLAIQLAAVTEDKYEILQSVDDAAIVIKNTKEPPLSLTIHLTSPVVREEMEKVLAGETLSVNDPPDVLDRQKCLAALASLRHAKWFQARANGLKSCVIVIRVLRDLCTRVPTWGPLRGWPLELLCEKSIGTANRPMGAGEALRRVLECLASGIVMPDGSGIYDPCEKEATDAIGHLDRQQREDITQSAQHALRLAAFGQLHKVLGMDPLPSKMPKKPKNENPVDYTVQIPPSTTYAITPMKRPMEEDGEEKSPSKKKKKIQKKEEKAEPPQAMNALMRLNQLKPGLQYKLVSQTGPVHAPIFTMSVEVDGNSFEASGPSKKTAKLHVAVKVLQDMGLPTGAEGRDSSKGEDSAEETEAKPAVVAPAPVVEAVSTPSAAFPSDATAEQGPILTKHGKNPVMELNEKRRGLKYELISETGGSHDKRFVMEVEVDGQKFQGAGSNKKVAKAYAALAALEKLFPDTPLALDANKKKRAPVPVRGGPKFAAKPHNPGFGMGGPMHNEVPPPPNLRGRGRGGSIRGRGRGRGFGGANHGGYMNAGAGYGSYGYGGNSATAGYSQFYSNGGHSGNASGGGGGGGGGSSGYGSYYQGDNYNSPVPPKHAGKKQPHGGQQKPSYGSGYQSHQGQQQSYNQSPYSNYGPPQGKQKGYNHGQGSYSYSNSYNSPGGGGGSDYNYESKFNYSGSGGRSGGNSYGSGGASYNPGSHGGYGGGSGGGSSYQGKQGGYSQSNYNSPGSGQNYSGPPSSYQSSQGGYGRNADHSMNYQYR
B3: constitutive coactivator of PPAR-gamma-like protein 1 (FAM120A) (protein, UniProt Q9NZB2 1-1118)
chain: MGVQGFQDYIEKHCPSAVVPVELQKLARGSLVGGGRQRPPQTPLRLLVDADNCLHRLYGGFYTDWVSGGQWNHMLGYLAALAKACFGGNIELFVFFNGALEKARLHEWVKRQGNERQTAQQIVSHVQNKGTPPPKVWFLPPVCMAHCIRLALIRFHVKVAQSIEDHHQEVIGFCRENGFHGLVAYDSDYALCNIPYYFSAHALKLSRNGKSLTTSQYLMHEVAKQLDLNPNRFPIFAALLGNHILPDEDLASFHWSLLGPEHPLASLKVRAHQLVLPPCDVVIKAVADYVRNIQDTSDLDAIAKDVFQHSQSRTDDKVIRFKRAIGYYSATSKPMSFHPPHYLAARPGPFGMPGMVPPHVPPQMLNIPQTSLQAKPVAPQVPSPGGAPGQGPYPYSLSEPAPLTLDTSGKNLTEQNSYSNIPHEGKHTPLYERSSPINPAQSGSPNHVDSAYFPGSSTSSSSDNDEGSGGATNHISGNKIGWEKTGSHSEPQARGDPGDQTKAEGSSTASSGSQLAEGKGSQMGTVQPIPCLLSMPTRNHMDITTPPLPPVAPEVLRVAEHRHKKGLMYPYIFHVLTKGEIKIAVSIEDEANKDLPPAALLYRPVRQYVYGVLFSLAESRKKTERLAFRKNRLPPEFSPVIIKEWAAYKGKSPQTPELVEALAFREWTCPNLKRLWLGKAVEDKNRRMRAFLACMRSDTPAMLNPANVPTHLMVLCCVLRYMVQWPGARILRRQELDAFLAQALSPKLYEPDQLQELKIENLDPRGIQLSALFMSGVDMALFANDACGQPIPWEHCCPWMYFDGKLFQSKLLKASREKTPLIDLCDGQADQAAKVEKMRQSVLEGLSFSRQSHTLPFPPPPALPFYPASAYPRHFGPVPPSQGRGRGFAGVCGFGGPYGETVATGPYRAFRVAAASGHCGAFSGSDSSRTSKSQGGVQPIPSQGGKLEIAGTVVGHWAGSRRGRGGRGPFPLQVVSVGGPARGRPRGVISTPVIRTFGRGGRYYGRGYKNQAAIQGRPPYAASAEEVAKELKSKSGESKSSAMSSDGSLAENGVMAEEKPAPQMNGSTGDARAPSHSESALNNDSKTCNTNPHLNALSTDSACRREAALEAAVLNKEE
B4: RNA-binding protein 14 (RBM14) (protein, UniProt Q96PK6 1-669)
chain: MKIFVGNVDGADTTPEELAALFAPYGTVMSCAVMKQFAFVHMRENAGALRAIEALHGHELRPGRALVVEMSRPRPLNTWKIFVGNVSAACTSQELRSLFERRGRVIECDVVKDYAFVHMEKEADAKAAIAQLNGKEVKGKRINVELSTKGQKKGPGLAVQSGDKTKKPGAGDTAFPGTGGFSATFDYQQAFGNSTGGFDGQARQPTPPFFGRDRSPLRRSPPRASYVAPLTAQPATYRAQPSVSLGAAYRAQPSASLGVGYRTQPMTAQAASYRAQPSVSLGAPYRGQLASPSSQSAAASSLGPYGGAQPSASALSSYGGQAAAASSLNSYGAQGSSLASYGNQPSSYGAQAASSYGVRAAASSYNTQGAASSLGSYGAQAASYGAQSAASSLAYGAQAASYNAQPSASYNAQSAPYAAQQAASYSSQPAAYVAQPATAAAYASQPAAYAAQATTPMAGSYGAQPVVQTQLNSYGAQASMGLSGSYGAQSAAAATGSYGAAAAYGAQPSATLAAPYRTQSSASLAASYAAQQHPQAAASYRGQPGNAYDGAGQPSAAYLSMSQGAVANANSTPPPYERTRLSPPRASYDDPYKKAVAMSKRYGSDRRLAELSDYRRLSESQLSFRRSPTKSSLDYRRLPDAHSDYARYSGSYNDYLRAAQMHSGYQRRM
B5: pyruvate dehydrogenase E1 component subunit beta (PDHB) (protein, UniProt P11177 31-359)
chain: LQVTVRDAINQGMDEELERDEKVFLLGEEVAQYDGAYKVSRGLWKKYGDKRIIDTPISEMGFAGIAVGAAMAGLRPICEFMTFNFSMQAIDQVINSAAKTYYMSGGLQPVPIVFRGPNGASAGVAAQHSQCFAAWYGHCPGLKVVSPWNSEDAKGLIKSAIRDNNPVVVLENELMYGVPFEFPPEAQSKDFLIPIGKAKIERQGTHITVVSHSRPVGHCLEAAAVLSKEGVECEVINMRTIRPMDMETIEASVMKTNHLVTVEGGWPQFGVGAEICARIMEGPAFNFLDAPAVRVTGADVPMPYAKILEDNSIPQVKDIIFAIKKTLNI

These molecules were tested against High-mobility group box 1 (HMGB1), bait of the co-immunoprecipitation for mass spectrometry (UniProt P09429) (assay: affinity purification with mass spectrometry; Co-IP of HMGB1, bands cut from a Coomassie-stained gel, LC-ESL-LTQ-Orbitrap-MS; cells not given).

binding, binds:
neuralized-like protein 4 (NEURL4) (from UniProt Q96JN8 1-1562)
B1
B2
B3
B4
B5
